Results on 22 compounds are retold here after PubChem BioAssay AID248 (DTP/NCI, 2004).

The list does not hold the whole screen: it is rich in T/C values a quarter to a half above the control, in often repeated tests (any T/C) and in doses without a T/C. Further doses and runs are listed elsewhere. T/C is the treated group as % of the vehicle group. Some entries give survivors of the animals treated and no T/C: the source files T/C as zero there, which appears to mark a toxic dose or a test without result, not a measured value. Some doses without a T/C left all or most animals alive at the check, yet need not have been tolerated: the source hardly ever lists a survival T/C far under the control, and the zero likely stands for such cases as well. Survivors were counted at the toxicity check, usually on the fifth day, unless a day is given; later deaths do not show. Schedules are NCI's codes, read here as Q, the interval in days (D) or hours (H), X, the number of doses. Some doses were run more than once; their values stand side by side, smallest first. Some schedule codes hold Z or #, which are not explained here. Some molecules as drawn cover several salts, stereoisomers or complexes of the source; a dose is that of the sample tested. Where survival is the endpoint, the PubChem record calls one and a half times the control and up active, and a quarter to a half above the control has no call in these data; cut-offs in other NCI protocols can differ.

In the experiment the test system is L1210 leukemia ip in BDF1 mice, survival T/C. Put plainly: NCI In Vivo Anticancer Drug Screen. Data for tumor model L1210 Leukemia (intraperitoneal) in B6D2F1 (BDF1) mice. The conditions noted are these: T/C endpoint: mean survival time, higher T/C = longer survival.
[1] abbreviates: dose: 100.0 mg/kg/injection, schedule: Q01DX009 (ip), vehicle: Klucel (hydroxypropylcellulose) (HPC).
Setting [2] is: dose: 400.0 mg/kg/injection, schedule: Q01DX009 (ip), vehicle: Klucel (hydroxypropylcellulose) (HPC).
Where [3] appears, read: dose: 400.0 mg/kg/injection, schedule: Q01DX001 (ip), vehicle: saline.
[4] abbreviates: dose: 200.0 mg/kg/injection, schedule: Q01DX009 (ip), vehicle: Klucel (hydroxypropylcellulose) (HPC).
Where [5] appears, read: dose: 200.0 mg/kg/injection, schedule: Q04DX003 (ip), vehicle: Klucel (hydroxypropylcellulose) (HPC).
Setting [6] is: dose: 400.0 mg/kg/injection, schedule: Q04DX003 (ip), vehicle: Klucel (hydroxypropylcellulose) (HPC).
Setting [7] is: dose: 100.0 mg/kg/injection, schedule: Q01DX001 (ip), vehicle: saline.
Setting [8] is: dose: 200.0 mg/kg/injection, schedule: Q01DX001 (ip), vehicle: saline.

On to `O=c1[nH]c2cc(Cl)c(Cl)cc2o1`, for which the survivor count (dose: 150.0 mg/kg/injection, schedule: Q01DX Z (ip), vehicle: carboxymethylcellulose (CMC)) was 4 of 6.

In the case of `c1ccc(-c2cc3ccccc3[nH]2)cc1`, the survivor count under setting [1] is on record as 6 of 6 and the survivor count under setting [2] is recorded as 3 of 6.

In the case of `CCC[n+]1cccc(C#N)c1`, the survivor count is recorded as 3 of 6 (dose: 150.0 mg/kg/injection, schedule: Q04DX003 (ip), vehicle: saline) and 0 of 6 (dose: 300.0 mg/kg/injection, schedule: Q01DX001 (ip), vehicle: saline).

As for `COc1cccc(N=CC(=O)c2ccc(C)cc2)c1`, for the setting “dose: 300.0 mg/kg/injection, schedule: Q04DX003 (ip), vehicle: Klucel (hydroxypropylcellulose) (HPC)”, the survivor count is 4 of 6.

Turning to `O=c1[nH]cnc2n[nH]nc12`, the T/C (dose: 600.0 mg/kg/injection, schedule: Q01DX009 (ip), vehicle: other) is 126 % of control.

Consider `NCCCCC(N)C(=O)NC(CCCN=C(N)N)C(=O)O` (centres undefined), for which the survivor count is 6 of 6 (dose: 100.0 mg/kg/injection, schedule: Q04DX003 (ip), vehicle: water); 6 of 6 (dose: 200.0 mg/kg/injection, schedule: Q04DX003 (ip), vehicle: water); 3 of 6 (dose: 400.0 mg/kg/injection, schedule: Q01DX009 (ip), vehicle: water); 6 of 6 (dose: 400.0 mg/kg/injection, schedule: Q04DX003 (ip), vehicle: water).

For the compound `S=c1nc[nH]c2nc(N=Nc3cc(Cl)ccc3Cl)[nH]c12`, the survivor count under setting [3] is 3 of 6.

Take `NC(Cc1c[nH]c2cc(N(CCCl)CCCl)ccc12)C(=O)O` (centres undefined): the T/C is, setting by setting: (dose: 1.0 mg/kg/injection, schedule: Q01DX Z (ip), vehicle: other) 126 % of control; (dose: 250.0 micrograms/kg/injection, schedule: Q01DX009 (ip), vehicle: carboxymethylcellulose (CMC)) 137 % of control.

For the compound `CC1=C(C)CC2(C)N(C)CC2(C)C1` (centres undefined), the survivor count (dose: 300.0 mg/kg/injection, schedule: Q01DX001 (ip), vehicle: other) is 0 of 6.

Turning to `CCCCN(CCCC)CCCNC(=O)OCC`, the survivor count by setting is: under setting [4], 0 of 6; under setting [5], 0 of 6; under setting [2], 0 of 6; under setting [6], 0 of 6.

`O=C(c1ccccc1[N+](=O)[O-])C(Br)C(Br)c1cccc2ccccc12` (centres undefined): the survivor count is, setting by setting: (dose: 100.0 mg/kg/injection, schedule: Q04DX002 (ip), vehicle: saline with Tween-80) 3 of 3; (dose: 400.0 mg/kg/injection, schedule: Q04DX002 (ip), vehicle: saline with Tween-80) 3 of 3 and 6 of 6.

In the case of `Nc1ccc(C(=O)OCCCN2CCCCC2)cc1`, the survivor count is on record as 0 of 6 (dose: 100.0 mg/kg/injection, schedule: Q01DX009 (ip), vehicle: saline); 0 of 6 (dose: 200.0 mg/kg/injection, schedule: Q01DX009 (ip), vehicle: saline); 0 of 6 (dose: 400.0 mg/kg/injection, schedule: Q01DX009 (ip), vehicle: saline).

Regarding `COc1cc2c3c(c4cc(OC)c(OC)cc4c2cc1OC)CN1CCC[C@H]1C3`, the T/C runs as follows: (dose: 12.5 mg/kg/injection, schedule: Q01DX015 (ip), vehicle: water) 131 % of control; (dose: 15.0 mg/kg/injection, schedule: Q01DX Z (ip), vehicle: water) 130 % of control; (dose: 62.5 mg/kg/injection, schedule: Q01DX Z (ip), vehicle: saline) 138 % of control; (dose: 125.0 mg/kg/injection, schedule: Q01DX Z (ip), vehicle: saline) 144 % of control; (dose: 500.0 mg/kg/injection, schedule: Q01DX Z (ip), vehicle: saline) 130 % of control. The survivor count is reported as 0 of 6 (dose: 14.0 mg/kg/injection, schedule: Q01DX015 (ip), vehicle: water); 1 of 6 (dose: 16.0 mg/kg/injection, schedule: Q01DX Z (ip), vehicle: water); 0 of 6 (dose: 20.0 mg/kg/injection, schedule: Q01DX015 (ip), vehicle: water); 0 of 6 (dose: 30.0 mg/kg/injection, schedule: Q01DX015 (ip), vehicle: water); 4 of 6 (dose: 30.0 mg/kg/injection, schedule: Q01DX Z (ip), vehicle: water); 0 of 6 (dose: 40.0 mg/kg/injection, schedule: Q01DX015 (ip), vehicle: water). The survivor count is 0 of 6 (dose: 50.0 mg/kg/injection, schedule: Q01DX015 (ip), vehicle: water); 0 of 6 (dose: 60.0 mg/kg/injection, schedule: Q01DX Z (ip), vehicle: water); 4 of 6 (dose: 60.0 mg/kg/injection, schedule: Q02DX Z (ip), vehicle: water).

Regarding `C[Si]1(C)CCCSC1`, the survivor count reads like this: under setting [7], 3 of 6; under setting [8], 0 of 6; under setting [3], 0 of 6.

With `CCO/C=C1\SC(=S)N(c2ccccc2C)C1=O`, the survivor count under setting [1] was 3 of 6 and the survivor count under setting [2] was 0 of 6.

For the compound `c1ccc(C[P+](c2ccccc2)(c2ccccc2)c2ccccc2)cc1`, the survivor count runs as follows: (dose: 20.0 mg/kg/injection, schedule: Q01DX009 (ip), vehicle: saline with Tween-80) 2 of 6; (dose: 25.0 mg/kg/injection, schedule: Q01DX009 (ip), vehicle: Klucel (hydroxypropylcellulose) (HPC)) 0 of 6; (dose: 50.0 mg/kg/injection, schedule: Q01DX009 (ip), vehicle: Klucel (hydroxypropylcellulose) (HPC)) 0 of 6; (dose: 50.0 mg/kg/injection, schedule: Q04DX003 (ip), vehicle: Klucel (hydroxypropylcellulose) (HPC)) 2 of 6; (dose: 80.0 mg/kg/injection, schedule: Q01DX001 (ip), vehicle: saline) 0 of 6; under setting [7], 0 of 6. The survivor count by setting is: under setting [1], 0 of 6; (dose: 100.0 mg/kg/injection, schedule: Q04DX003 (ip), vehicle: Klucel (hydroxypropylcellulose) (HPC)) 0 of 6; under setting [8], 0 of 6; under setting [4], 0 of 6; under setting [5], 0 of 6; under setting [3], 0 of 6. For the same compound, the survivor count is reported as 0 of 6 under setting [2] and 0 of 6 under setting [6].

Take `CC(=O)Nc1ncnc2n[nH]c(C#N)c12`: the survivor count is, setting by setting: (dose: 200.0 mg/kg/injection, schedule: Q01DX005 (ip), vehicle: saline with Tween-80) 1 of 6; (dose: 400.0 mg/kg/injection, schedule: Q01DX005 (ip), vehicle: saline with Tween-80) 0 of 6.

Turning to `CCCCC1(C2CCCC2)NC(C)(C)CC(C)O1` (centres undefined), the survivor count (dose: 400.0 mg/kg/injection, schedule: Q01DX009 (ip), vehicle: saline with Tween-80) is given as 1 of 6.

In the case of `NOCc1ccc(OCc2ccccc2)cc1`, the survivor count (dose: 400.0 mg/kg/injection, schedule: Q04DX003 (ip), vehicle: acetone) was 0 of 6.

For the compound `CC(Br)C(=O)c1cccc2ccccc12` (centres undefined), the survivor count is listed as 6 of 6 under setting [5] and 6 of 6 under setting [6].

As to `Cc1cc[n+]2cc3ccc4ccccc4c3c(C)c2c1`, the survivor count (dose: 12.5 mg/kg/injection, schedule: Q01DX009 (ip), vehicle: acetone) is listed as 3 of 6; the survivor count (dose: 25.0 mg/kg/injection, schedule: Q04DX003 (ip), vehicle: acetone) is 6 of 6; the survivor count (dose: 50.0 mg/kg/injection, schedule: Q04DX003 (ip), vehicle: acetone) is on record as 0 of 6.

On to `c1cc2ccsc2cn1`, for which the survivor count is given as 2 of 6 (dose: 100.0 mg/kg/injection, schedule: Q04DX003 (ip), vehicle: saline with Tween-80); 2 of 6 (dose: 200.0 mg/kg/injection, schedule: Q04DX003 (ip), vehicle: saline with Tween-80); 0 of 6 (dose: 400.0 mg/kg/injection, schedule: Q04DX003 (ip), vehicle: saline with Tween-80).
